This is one part of the list.

Protein sequences, listed by entry. Tags and fused reporters are not part of them. Lines headed by an entry give the natural chain unless they say otherwise; changes in a name come on top.
UniProt Q9BSR8: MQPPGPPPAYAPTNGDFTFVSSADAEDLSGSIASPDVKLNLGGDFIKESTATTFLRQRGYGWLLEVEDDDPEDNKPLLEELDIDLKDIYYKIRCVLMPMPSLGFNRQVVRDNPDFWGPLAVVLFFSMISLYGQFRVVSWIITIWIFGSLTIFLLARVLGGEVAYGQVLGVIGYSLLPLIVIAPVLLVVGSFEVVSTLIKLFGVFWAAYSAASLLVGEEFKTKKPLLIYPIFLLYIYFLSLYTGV
UniProt Q8TBF4: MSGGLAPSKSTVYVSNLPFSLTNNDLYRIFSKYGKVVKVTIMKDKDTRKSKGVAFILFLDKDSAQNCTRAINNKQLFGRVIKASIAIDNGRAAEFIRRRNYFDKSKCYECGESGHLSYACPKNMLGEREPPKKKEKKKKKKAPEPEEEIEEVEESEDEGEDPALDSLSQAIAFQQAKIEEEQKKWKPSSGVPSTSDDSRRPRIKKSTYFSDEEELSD
UniProt Q499Z4: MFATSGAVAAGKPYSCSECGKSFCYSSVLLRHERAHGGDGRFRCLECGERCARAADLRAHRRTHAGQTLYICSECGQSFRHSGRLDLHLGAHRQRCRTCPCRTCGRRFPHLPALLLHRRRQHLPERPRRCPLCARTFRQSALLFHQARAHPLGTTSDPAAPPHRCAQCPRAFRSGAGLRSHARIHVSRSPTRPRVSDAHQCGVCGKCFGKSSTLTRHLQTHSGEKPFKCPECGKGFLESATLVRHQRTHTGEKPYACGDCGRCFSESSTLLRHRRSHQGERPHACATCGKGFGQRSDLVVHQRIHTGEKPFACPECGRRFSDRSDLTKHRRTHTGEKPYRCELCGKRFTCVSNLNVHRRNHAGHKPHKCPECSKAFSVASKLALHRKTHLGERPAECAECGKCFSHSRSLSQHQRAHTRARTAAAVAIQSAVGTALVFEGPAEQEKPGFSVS
UniProt Q9BUR4: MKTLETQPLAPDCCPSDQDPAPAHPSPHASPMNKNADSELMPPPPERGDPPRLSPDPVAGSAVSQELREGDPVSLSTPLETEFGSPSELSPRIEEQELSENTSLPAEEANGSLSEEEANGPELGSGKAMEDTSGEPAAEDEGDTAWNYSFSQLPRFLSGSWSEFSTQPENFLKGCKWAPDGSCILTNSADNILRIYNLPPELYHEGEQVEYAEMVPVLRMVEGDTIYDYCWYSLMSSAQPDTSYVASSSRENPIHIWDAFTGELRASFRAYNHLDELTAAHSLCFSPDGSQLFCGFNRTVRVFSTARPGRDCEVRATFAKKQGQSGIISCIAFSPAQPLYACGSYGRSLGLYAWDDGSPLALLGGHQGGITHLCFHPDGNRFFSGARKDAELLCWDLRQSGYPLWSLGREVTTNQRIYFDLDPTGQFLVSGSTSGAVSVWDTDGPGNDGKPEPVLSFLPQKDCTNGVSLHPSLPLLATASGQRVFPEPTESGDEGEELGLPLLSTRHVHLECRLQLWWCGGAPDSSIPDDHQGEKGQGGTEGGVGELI
UniProt Q9ULJ6: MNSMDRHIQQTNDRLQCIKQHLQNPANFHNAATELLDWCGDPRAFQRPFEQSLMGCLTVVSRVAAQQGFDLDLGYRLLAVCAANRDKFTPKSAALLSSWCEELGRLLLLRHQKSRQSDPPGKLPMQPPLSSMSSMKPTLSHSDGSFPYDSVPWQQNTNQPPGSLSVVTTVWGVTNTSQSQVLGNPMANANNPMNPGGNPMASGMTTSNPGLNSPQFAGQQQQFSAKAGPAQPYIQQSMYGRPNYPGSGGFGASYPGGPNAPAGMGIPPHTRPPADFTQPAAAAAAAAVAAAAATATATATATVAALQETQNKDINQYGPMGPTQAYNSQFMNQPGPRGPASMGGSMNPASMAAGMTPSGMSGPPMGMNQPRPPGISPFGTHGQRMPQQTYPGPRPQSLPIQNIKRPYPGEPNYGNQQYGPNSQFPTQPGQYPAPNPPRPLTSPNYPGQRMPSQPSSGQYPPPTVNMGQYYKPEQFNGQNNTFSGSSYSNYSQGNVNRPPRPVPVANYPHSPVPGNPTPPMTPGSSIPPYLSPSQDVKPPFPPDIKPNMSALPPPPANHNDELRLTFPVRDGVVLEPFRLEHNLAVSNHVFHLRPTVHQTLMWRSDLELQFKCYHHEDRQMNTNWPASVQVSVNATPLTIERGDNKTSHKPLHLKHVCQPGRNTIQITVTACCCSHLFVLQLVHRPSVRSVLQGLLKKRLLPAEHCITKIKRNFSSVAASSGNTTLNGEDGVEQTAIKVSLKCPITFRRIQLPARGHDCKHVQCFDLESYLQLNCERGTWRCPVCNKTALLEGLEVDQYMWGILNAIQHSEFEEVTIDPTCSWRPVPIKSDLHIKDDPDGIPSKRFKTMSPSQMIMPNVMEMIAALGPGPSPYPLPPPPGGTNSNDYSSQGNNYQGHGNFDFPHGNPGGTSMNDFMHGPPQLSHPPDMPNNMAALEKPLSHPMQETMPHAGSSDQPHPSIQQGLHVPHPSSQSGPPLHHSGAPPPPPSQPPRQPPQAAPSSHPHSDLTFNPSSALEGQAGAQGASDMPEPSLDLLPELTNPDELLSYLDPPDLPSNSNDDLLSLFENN
UniProt Q86VM9: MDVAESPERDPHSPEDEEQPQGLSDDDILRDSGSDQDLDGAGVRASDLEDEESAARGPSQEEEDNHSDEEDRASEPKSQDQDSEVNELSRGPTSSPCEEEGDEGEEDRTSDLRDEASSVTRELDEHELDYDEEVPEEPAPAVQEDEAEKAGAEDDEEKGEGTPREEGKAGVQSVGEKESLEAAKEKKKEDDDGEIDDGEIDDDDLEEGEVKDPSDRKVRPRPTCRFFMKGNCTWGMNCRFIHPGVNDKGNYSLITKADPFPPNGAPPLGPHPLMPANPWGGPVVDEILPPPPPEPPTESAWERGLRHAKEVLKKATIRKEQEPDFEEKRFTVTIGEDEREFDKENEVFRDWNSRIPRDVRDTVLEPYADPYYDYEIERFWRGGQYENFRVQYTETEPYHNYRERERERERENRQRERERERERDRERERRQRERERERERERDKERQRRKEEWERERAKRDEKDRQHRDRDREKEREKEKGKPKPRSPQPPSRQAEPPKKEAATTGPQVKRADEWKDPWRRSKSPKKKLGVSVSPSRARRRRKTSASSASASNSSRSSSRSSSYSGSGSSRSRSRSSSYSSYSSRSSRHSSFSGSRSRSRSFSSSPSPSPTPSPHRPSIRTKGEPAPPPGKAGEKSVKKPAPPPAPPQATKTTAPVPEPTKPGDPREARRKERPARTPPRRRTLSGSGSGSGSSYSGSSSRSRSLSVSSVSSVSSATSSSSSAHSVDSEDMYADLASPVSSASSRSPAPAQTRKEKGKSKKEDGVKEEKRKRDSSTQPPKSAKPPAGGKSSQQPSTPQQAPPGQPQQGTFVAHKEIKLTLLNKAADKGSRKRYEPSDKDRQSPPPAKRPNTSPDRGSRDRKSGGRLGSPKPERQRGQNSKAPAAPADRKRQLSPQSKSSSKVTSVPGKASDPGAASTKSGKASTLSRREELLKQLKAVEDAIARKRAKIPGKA
UniProt Q9H6Y2: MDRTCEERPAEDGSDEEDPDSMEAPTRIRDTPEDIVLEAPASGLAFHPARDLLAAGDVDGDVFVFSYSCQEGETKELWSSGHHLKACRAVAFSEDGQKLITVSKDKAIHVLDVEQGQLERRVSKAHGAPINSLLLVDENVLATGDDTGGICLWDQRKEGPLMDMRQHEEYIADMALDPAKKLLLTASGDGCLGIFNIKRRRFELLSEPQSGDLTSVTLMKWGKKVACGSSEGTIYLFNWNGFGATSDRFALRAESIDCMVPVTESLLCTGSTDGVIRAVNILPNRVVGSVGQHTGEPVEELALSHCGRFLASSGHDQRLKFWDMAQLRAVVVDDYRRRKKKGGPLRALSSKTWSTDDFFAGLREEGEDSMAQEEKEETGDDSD
UniProt O00488: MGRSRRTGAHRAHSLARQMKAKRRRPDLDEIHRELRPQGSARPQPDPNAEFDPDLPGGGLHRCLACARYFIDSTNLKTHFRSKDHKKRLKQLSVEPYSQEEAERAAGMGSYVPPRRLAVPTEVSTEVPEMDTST
UniProt Q8IUH4: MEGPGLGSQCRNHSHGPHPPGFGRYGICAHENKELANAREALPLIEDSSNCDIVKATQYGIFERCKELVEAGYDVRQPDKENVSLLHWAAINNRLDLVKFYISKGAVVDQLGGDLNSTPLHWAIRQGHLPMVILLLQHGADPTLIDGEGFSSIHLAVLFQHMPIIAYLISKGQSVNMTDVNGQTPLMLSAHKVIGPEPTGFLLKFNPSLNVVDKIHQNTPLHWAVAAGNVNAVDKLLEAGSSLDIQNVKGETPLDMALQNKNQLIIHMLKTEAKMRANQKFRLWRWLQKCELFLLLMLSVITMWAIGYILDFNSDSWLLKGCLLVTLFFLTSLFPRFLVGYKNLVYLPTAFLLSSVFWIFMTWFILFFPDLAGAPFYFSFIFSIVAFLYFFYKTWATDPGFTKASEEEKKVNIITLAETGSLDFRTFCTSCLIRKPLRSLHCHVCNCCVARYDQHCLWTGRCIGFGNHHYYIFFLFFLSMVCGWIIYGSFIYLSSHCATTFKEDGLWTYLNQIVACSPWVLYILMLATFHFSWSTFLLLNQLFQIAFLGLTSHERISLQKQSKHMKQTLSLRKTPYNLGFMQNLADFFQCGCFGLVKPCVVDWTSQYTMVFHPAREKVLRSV
UniProt Q7Z2W4: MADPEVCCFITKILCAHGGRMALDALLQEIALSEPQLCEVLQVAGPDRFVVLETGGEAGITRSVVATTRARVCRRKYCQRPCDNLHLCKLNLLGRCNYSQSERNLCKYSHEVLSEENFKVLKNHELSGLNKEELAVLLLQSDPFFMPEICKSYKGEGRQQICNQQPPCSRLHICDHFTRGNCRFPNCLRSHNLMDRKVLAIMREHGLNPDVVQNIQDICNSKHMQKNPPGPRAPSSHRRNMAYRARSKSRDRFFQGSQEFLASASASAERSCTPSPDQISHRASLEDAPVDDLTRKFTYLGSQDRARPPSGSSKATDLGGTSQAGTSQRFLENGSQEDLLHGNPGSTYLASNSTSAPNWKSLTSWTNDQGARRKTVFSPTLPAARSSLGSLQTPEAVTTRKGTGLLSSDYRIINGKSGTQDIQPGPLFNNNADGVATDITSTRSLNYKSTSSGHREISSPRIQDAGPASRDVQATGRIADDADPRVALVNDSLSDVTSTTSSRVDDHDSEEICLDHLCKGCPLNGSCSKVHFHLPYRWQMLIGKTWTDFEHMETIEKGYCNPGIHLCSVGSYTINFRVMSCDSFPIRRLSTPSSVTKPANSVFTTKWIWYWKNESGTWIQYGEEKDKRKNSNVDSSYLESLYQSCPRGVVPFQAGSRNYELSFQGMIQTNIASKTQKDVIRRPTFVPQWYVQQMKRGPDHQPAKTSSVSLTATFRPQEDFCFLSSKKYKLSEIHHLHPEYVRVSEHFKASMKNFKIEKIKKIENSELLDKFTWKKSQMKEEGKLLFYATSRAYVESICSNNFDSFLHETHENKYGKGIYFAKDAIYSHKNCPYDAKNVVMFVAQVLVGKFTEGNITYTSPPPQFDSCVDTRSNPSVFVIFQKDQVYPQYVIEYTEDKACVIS
UniProt O95070: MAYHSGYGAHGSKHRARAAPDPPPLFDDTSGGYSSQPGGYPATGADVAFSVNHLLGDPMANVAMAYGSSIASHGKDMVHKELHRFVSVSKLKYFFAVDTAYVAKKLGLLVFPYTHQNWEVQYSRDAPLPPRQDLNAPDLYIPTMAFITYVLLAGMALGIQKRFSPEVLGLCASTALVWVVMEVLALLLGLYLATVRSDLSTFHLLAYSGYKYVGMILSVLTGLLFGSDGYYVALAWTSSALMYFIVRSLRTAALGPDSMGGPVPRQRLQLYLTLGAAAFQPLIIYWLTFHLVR
UniProt Q96K80: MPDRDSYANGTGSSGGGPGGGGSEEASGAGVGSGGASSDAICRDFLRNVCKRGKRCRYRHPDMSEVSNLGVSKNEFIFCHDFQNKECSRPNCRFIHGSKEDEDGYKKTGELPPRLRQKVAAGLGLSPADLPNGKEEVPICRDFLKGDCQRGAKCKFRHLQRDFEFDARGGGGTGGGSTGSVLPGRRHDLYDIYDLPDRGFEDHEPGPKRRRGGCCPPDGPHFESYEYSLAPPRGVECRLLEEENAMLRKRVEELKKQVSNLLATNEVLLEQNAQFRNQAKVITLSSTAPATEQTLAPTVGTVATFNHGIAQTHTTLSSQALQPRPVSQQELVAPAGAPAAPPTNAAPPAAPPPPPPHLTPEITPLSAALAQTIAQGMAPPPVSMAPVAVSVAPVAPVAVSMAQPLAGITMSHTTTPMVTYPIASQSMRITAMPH
UniProt O95159: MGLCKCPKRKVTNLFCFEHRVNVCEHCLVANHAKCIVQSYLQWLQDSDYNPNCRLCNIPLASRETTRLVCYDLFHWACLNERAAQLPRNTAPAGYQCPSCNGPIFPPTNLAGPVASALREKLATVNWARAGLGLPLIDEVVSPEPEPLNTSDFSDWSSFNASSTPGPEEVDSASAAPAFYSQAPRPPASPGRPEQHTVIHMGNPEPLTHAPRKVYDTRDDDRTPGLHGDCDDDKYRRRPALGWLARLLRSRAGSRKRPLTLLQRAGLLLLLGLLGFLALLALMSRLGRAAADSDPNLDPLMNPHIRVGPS

Compound in the assay: COc1ccc(Cn2ccc3cc(C)c(C(=O)NO)cc32)cc1
Briefly: dose-dependent thermal stabilisation call (2D-TPP, DLPTP, 10% FDR) (binary (1 = stabilised)); higher = stabilised by the compound. Particulars: system: HL-60 intact cells; concentration range 0.04-10 µM. Here is the method:
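2D thermal proteome profiling in intact HL-60 cells treated with BRD-3811 (0, 0.04, 0.29, 2, 10 uM) for 90 min at 37 C, then heated 3 min at one of 12 temperatures (42-63.9 C). Soluble protein was quantified by TMT10 MS. The value is the DLPTP call of the paper: dose-dependent thermal stabilisation over all temperatures at 10% FDR (F-test of a dose-response against a flat model); one experiment, one call per tested protein.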
As for YIPF4 (UniProt Q9BSR8), the “dose-dependent thermal stabilisation call” value is inactive: 0.

As for ZCRB1 (UniProt Q8TBF4), the “dose-dependent thermal stabilisation call” value is inactive: 0.

Regarding ZNF672 (UniProt Q499Z4), the “dose-dependent thermal stabilisation call” value was inactive: 0.

In the case of YTHDF3 (UniProt Q7Z739), the “dose-dependent thermal stabilisation call” value is inactive: 0.

Turning to WDR79 (UniProt Q9BUR4), the “dose-dependent thermal stabilisation call” value is inactive: 0.

For WDR23 (UniProt Q8TEB1), the “dose-dependent thermal stabilisation call” value was inactive: 0.

As to WDR12 (UniProt Q9GZL7), the “dose-dependent thermal stabilisation call” value is inactive: 0.

For ZMIZ1 (UniProt Q9ULJ6), the “dose-dependent thermal stabilisation call” value is inactive: 0.

As to YRDC (UniProt Q86U90), the “dose-dependent thermal stabilisation call” value was inactive: 0.

As for ZKSCAN4 (UniProt Q969J2), the “dose-dependent thermal stabilisation call” value was inactive: 0.

ZFYVE16 (UniProt Q7Z3T8): the “dose-dependent thermal stabilisation call” value was inactive: 0.

As for ZC3H18 (UniProt Q86VM9), the “dose-dependent thermal stabilisation call” value was inactive: 0.

On to WDR55 (UniProt Q9H6Y2), for which the “dose-dependent thermal stabilisation call” value is inactive: 0.

Turning to ZYX (UniProt Q15942), the “dose-dependent thermal stabilisation call” value is inactive: 0.

Take WDR4 (UniProt P57081): the “dose-dependent thermal stabilisation call” value was inactive: 0.

On to ZNF593 (UniProt O00488), for which the “dose-dependent thermal stabilisation call” value is inactive: 0.

Turning to XPR1 (UniProt Q9UBH6), the “dose-dependent thermal stabilisation call” value was inactive: 0.

In the case of ZNF691 (UniProt Q5VV52), the “dose-dependent thermal stabilisation call” value is inactive: 0.

As for ZFYVE27 (UniProt Q5T4F4), the “dose-dependent thermal stabilisation call” value was inactive: 0.

For ZDHHC13 (UniProt Q8IUH4), the “dose-dependent thermal stabilisation call” value was inactive: 0.

As for ZC3HAV1 (UniProt Q7Z2W4), the “dose-dependent thermal stabilisation call” value was inactive: 0.

On to ZFAND5 (UniProt O76080), for which the “dose-dependent thermal stabilisation call” value is inactive: 0.

With ZNF207 (UniProt O43670), the “dose-dependent thermal stabilisation call” value was inactive: 0.

As to YIF1A (UniProt O95070), the “dose-dependent thermal stabilisation call” value is inactive: 0.

ZC3H10 (UniProt Q96K80): the “dose-dependent thermal stabilisation call” value is inactive: 0.

For the target ZFPL1 (UniProt O95159), the “dose-dependent thermal stabilisation call” value is inactive: 0.

In the case of ZFP36L2 (UniProt P47974), the “dose-dependent thermal stabilisation call” value is inactive: 0.
